PubChem BioAssay AID540280 (National Center for Advancing Translational Sciences (NCATS), 2011)
This list was built around the results that the source calls inconclusive (neither active nor inactive); the mix of calls is not that of the screen. Where the call is inconclusive, the potency comes from a doubtful curve fit. The source made the active and inactive calls. Calls come from the whole dose curve.

Molecular target: DNA polymerase beta (Homo sapiens) (UniProt P06746)
Experiment: Inhibitors of DNA Polymerase Beta: Hit validation
Settings: Pol beta primer extension/strand displacement, fluorescence kinetic
Description: The base excision repair system in human cells is a target for therapeutic modulation of the response to irradiation treatment and DNA-damaging drugs. A key enzyme in this system is the bi-functional DNA polymerase known as DNA polymerase Beta (Pol Beta). The following is a homogeneous kinetic assay to study the primer extension and strand-displacement reaction catalyzed by pol beta.
A stepwise description of the 1536-well assay is shown in next Table. Three microliters of reagents (buffer in column 3 and 4 as negative control and 10 nM Pol beta in columns 1, 2, and 5-48) was dispensed into 1,536-well black solid-bottomed plate. Compounds (23 nL) were transferred via Kalypsys pin tool equipped with 1536-pin array (10 nL slotted pins, V&P Scientific, San Diego, CA). The plates were incubated for 15 min at room temperature, and 1 uL substrate (50 nM final concentration) were added to start the reaction and immediately read at 0 min read on Viewlux reader. The plate were further incubated for 10 min at room temperature, and then read on Viewlux again. Throughout the screen, reagent bottle and all liquid lines were chilled and made light-tight to minimize reagent degradation. All screening operations were performed on a fully integrated robotic system (Kalypsys, San Diego, CA) containing one RX-130 and two RX-90 anthropomorphic robotic arms (Staubli, Duncan, SC). Library plates were screened starting from the lowest and proceeding to the highest concentration, and a double-dipping step of the highest concentration was required to access higher concentrations of compounds. Vehicle-only plates, with DMSO being pin-transferred to the entire column 5-48 compound area, were inserted uniformly at the beginning and the end of each library in order to monitor for and record any shifts in the background, which can be affected by reagent dispensers or loss in enzyme activity overtime. Screening data were corrected, normalized, and concentration-effect relationships were derived by using publicly-available curve fitting algorithms developed in-house (http://ncgc.nih.gov/pub/openhts). A four parameter Hill equation was fitted to the concentration-response data by minimizing the residual error between the modeled and observed responses.
Potency is the fitted concentration of half-maximal effect.

Structure (SMILES)	Potency
COc1ccc(Cc2nnc(NC(=O)Cc3cccs3)s2)cc1OC	inconclusive: 35.5 µM [inhibitor, single point]
COc1cccc(C(=O)Nc2ccc3c(c2)C(=O)c2ccccc2C3=O)c1	active: 14.1 µM
CCn1cc(C(=O)NCc2ccco2)c(=O)c2cc(F)c(N3CCN(C(=O)c4ccco4)CC3)cc21	inconclusive: 31.6 µM [inhibitor, partial curve]
CN(CC(=O)NC(=O)NCc1ccco1)Cc1nc2ccccc2c(=O)[nH]1	active: 35.5 µM
CCOc1ccccc1CNC(=O)C1CCN(c2nnc(C)c3c(C)n(-c4ccc(C)cc4)nc23)CC1	inconclusive: 39.8 µM [inhibitor, single point]
Cc1ccc(C(=O)NN2CC(O)=C(c3nc(-c4cccc([N+](=O)[O-])c4)cs3)C2=N)cc1	inconclusive: 15.8 µM [inhibitor, partial curve]
COc1cccc2sc(Nc3nnc(-c4ccc(F)cc4)o3)nc12	active: 35.5 µM
CCn1c(=NC(=O)c2ccc(N3C(=O)CCC3=O)cc2)sc2c(OC)ccc(OC)c21	inconclusive: 25.1 µM [inhibitor, partial curve]
Cc1ccc(-n2nnc3c(=O)n(CC(=O)NCc4ccccc4)cnc32)cc1	inconclusive: 25.1 µM [inhibitor, partial curve]
COc1ccc(CCn2c(O)cc3nn(-c4nc5ccccc5s4)c(=O)c-3c2C)cc1	inconclusive: 35.5 µM [inhibitor, partial curve]
CC(C)C(NC(=O)OCc1ccccc1)C(=O)OCC(=O)NCc1ccco1 (configuration not stated)	inconclusive: 35.5 µM [inhibitor, single point]
CCOC(=O)Cc1csc(NC(=O)Cc2cccs2)n1	inconclusive: 39.8 µM [inhibitor, partial curve]
COc1cc([C@H](Cc2ccccc2)NC(C)=O)oc(=O)c1	active: 28.2 µM
O=C(OCC(=O)N1CCN(C(=O)c2ccco2)CC1)c1cc(-c2ccco2)nc2ccccc12	active: 3.55 µM
Cc1oc(-c2ccc(F)cc2)cc1-c1nn2c(-c3ccoc3C)nnc2s1	inconclusive: 25.1 µM [inhibitor, partial curve]
O=C(Nc1nc(-c2ccco2)c(-c2ccco2)s1)C1CC(=O)N(c2ccc3c(c2)OCCO3)C1 (configuration not stated)	inconclusive: 35.5 µM [inhibitor, partial curve]
CC(C)Cn1c(N)c(C(=O)COC(=O)c2cc(-c3ccco3)nc3ccccc23)c(=O)n(C)c1=O	active: 11.2 µM
C=CCn1c(SCc2cc(=O)n3ccsc3n2)nnc1C1CCCCC1	inconclusive: 35.5 µM [inhibitor, single point]
O=C(Nc1sc2c(c1C(=O)NCc1ccco1)CCCC2)c1ccc2c(c1)OCO2	inconclusive: 31.6 µM [inhibitor, partial curve]

Structure (SMILES)	Potency
COc1ccc(NC(=O)c2ccc(NCCN3C(=O)CCC3=O)c([N+](=O)[O-])c2)cc1	inconclusive: 31.6 µM [inhibitor, partial curve]
COc1ccc2cc3cc(C(=O)Nc4ccc5c(c4)OCCO5)oc3nc2c1	inconclusive: 31.6 µM [inhibitor, partial curve]
Cc1cc(C)n(-c2nc(Nc3ccccc3)nc(-n3nc(C)cc3C)n2)n1	inconclusive: 35.5 µM [inhibitor, single point]
Cc1nn(-c2cccc(Cl)c2)c2nc(-c3ccco3)cc(C(=O)O)c12	inconclusive: 35.5 µM [inhibitor, partial curve]
CSc1nc(N(C)CCO)c2sc3nc(-c4ccco4)c4c(c3c2n1)CCC4	inconclusive: 8.91 µM [inhibitor, full curve]
O=C(Cc1cccs1)N1CCN(c2ccc([N+](=O)[O-])cc2)CC1	inconclusive: 39.8 µM [inhibitor, single point]
N#Cc1c(=O)c2nc(NCCCO)ncc2n2c(=O)c3ccccc3[nH]c12	inconclusive: 35.5 µM [inhibitor, partial curve]
O=C(CSc1nc2scc(-c3ccco3)c2c(=O)n1-c1ccccc1)NCC1CCCO1 (configuration not stated)	inconclusive: 31.6 µM [inhibitor, partial curve]
Cn1c(SCC(=O)Nc2ccc3c(c2)oc2ccccc23)nnc1-c1ccccc1	inconclusive: 28.2 µM [inhibitor, single point]
O=C(CN1CCN(S(=O)(=O)c2cc(Cl)ccc2Cl)CC1)c1ccc(O)c(O)c1	inconclusive: 1.41 µM [inhibitor, full curve]
Cc1cc(SCC(=O)c2ccc(O)c(O)c2)nc2ccccc12	active: 11.2 µM
O=C(Nc1nnc(SCc2c(Cl)cccc2Cl)s1)C1CC(=O)N(c2ccc3c(c2)OCCO3)C1 (configuration not stated)	inconclusive: 35.5 µM [inhibitor, single point]
COC(=O)c1ccc(CSc2nc3scc(-c4cccs4)c3c(=O)[nH]2)o1	active: 31.6 µM
O=C(Nc1cc(Cl)cc(Cl)c1)c1ccc(Cn2c(=O)[nH]c3ccsc3c2=O)cc1	inconclusive: 35.5 µM [inhibitor, single point]
COc1ccccc1N1CCN(C(=O)c2cc3c(s2)CCC3)CC1	inconclusive: 35.5 µM [inhibitor, partial curve]
CC1N(C)c2cc(NC(=O)c3ccco3)ccc2C1(C)C (configuration not stated)	inconclusive: 31.6 µM [inhibitor, partial curve]
CC(C)(C)c1nc2ccccc2c2nnc(SCC(=O)Nc3nc4ccccc4s3)n12	inconclusive: 25.1 µM [inhibitor, partial curve]
CC(=O)Oc1ccc(C(=O)Nc2ccc(C3(C#N)CCCC3)cc2)cc1	inconclusive: 17.8 µM [inhibitor, partial curve]

Reformatted as a markdown table: part of the list above.

| Structure (SMILES) | Potency |
| --- | --- |
| Cn1c(SCC(=O)Nc2ccc3c(c2)oc2ccccc23)nnc1-c1ccccc1 | inconclusive: 28.2 µM [inhibitor, single point] |
| O=C(CN1CCN(S(=O)(=O)c2cc(Cl)ccc2Cl)CC1)c1ccc(O)c(O)c1 | inconclusive: 1.41 µM [inhibitor, full curve] |
| Cc1cc(SCC(=O)c2ccc(O)c(O)c2)nc2ccccc12 | active: 11.2 µM |
| O=C(Nc1nnc(SCc2c(Cl)cccc2Cl)s1)C1CC(=O)N(c2ccc3c(c2)OCCO3)C1 (configuration not stated) | inconclusive: 35.5 µM [inhibitor, single point] |
| COC(=O)c1ccc(CSc2nc3scc(-c4cccs4)c3c(=O)[nH]2)o1 | active: 31.6 µM |
| O=C(Nc1cc(Cl)cc(Cl)c1)c1ccc(Cn2c(=O)[nH]c3ccsc3c2=O)cc1 | inconclusive: 35.5 µM [inhibitor, single point] |
| COc1ccccc1N1CCN(C(=O)c2cc3c(s2)CCC3)CC1 | inconclusive: 35.5 µM [inhibitor, partial curve] |
| CC1N(C)c2cc(NC(=O)c3ccco3)ccc2C1(C)C (configuration not stated) | inconclusive: 31.6 µM [inhibitor, partial curve] |
| CC(C)(C)c1nc2ccccc2c2nnc(SCC(=O)Nc3nc4ccccc4s3)n12 | inconclusive: 25.1 µM [inhibitor, partial curve] |
| CC(=O)Oc1ccc(C(=O)Nc2ccc(C3(C#N)CCCC3)cc2)cc1 | inconclusive: 17.8 µM [inhibitor, partial curve] |
